# From patent publication US20250057968A1, “ANTI-DLL3 ANTIBODY AND PHARMACEUTICAL USE THEREOF, AND ANTIBODY-DRUG CONJUGATE CONTAINING ANTI-DLL3 ANTIBODY” (Jiangsu Hengrui Pharmaceuticals Co., Ltd., priority 2021, published 2025)
# B1: mAb100 (antibody, V domains shown)
# VH: EVQLVESGGGLVKPGGSLKLSCAASGFTFSDSGMHWIRQAPEKGLEWVAYISSGSSTIHYADTVKGRFTISRDNAKNTLFLQMTSLRSEDTAMYYCASPLYYYGRSYNAVAYWGQGTSVTVSS
# VL: DIQMNQSPSSLSASLGDTITITCHASQNINVWLSWYQQKPGNIPKLLIYKASDLHTGVPSRFSGSGSGTGFTLTISSLQPEDIATYYCQQGQSYPLTFGGGTKLEIK
# Molecular target: monkey DLL3 protein (hybridoma screening ELISA) (monkey)
# Assay: ELISA, hybridoma supernatant
binder,measurement,value
B1,binding,binds

# No constants are given. Whether binding was seen depends on the method and setting. Binding can be weak; no strength is given.
